Results deposited as PubChem BioAssay AID504791 (Drosophila RNAi Screening Center, 2011)
Screen: 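Genes whose knock-down strengthens or weakens small-RNA reporter silencing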 (primary screen). Cell system: Drosophila S2-derived reporter cells. Reagent: long dsRNA against Drosophila genes, about 150-250 ng dsRNA per well (siRNA assay); about 80-120 ng (miRNA assay). Time to read-out: about 5 days (siRNA assay); about 4 days (miRNA assay). Challenge: copper sulfate induction of reporters: 25 µM (siRNA assay); 200 mM stated (miRNA assay), 1-2 days before reading. Detection: 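Dual luciferase assay: Renilla to firefly signal ratio in each well, scaled to the mean ratio of its plate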. Active means: 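First-pass picks had plate-scaled ratios over 1.5 for the siRNA assay, over 1.6 for the miRNA assay, or under 0.6; two distinct dsRNAs had to score alike on retest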.
In all, the deposit lists about 23,000 reagents; below is an unselected part of those with a known target gene and a result. In the full data, 199 (0.86%) are marked active. 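Plate-scaled ratios behind the calls are not deposited; printed light signals are raw; many rows marked increased or decreased are still called inactive.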 Unmarked entries are inactive. Not given: the direction of the score.

CG1902 [SID104186590] — stable assay Renilla, run 1 (luminescence) = 7039; stable assay firefly, run 1 (luminescence) = 3.84e5
Elo68beta (Elongase 68beta) [SID104189652] — stable assay Renilla, run 1 (luminescence) = 5962; stable assay firefly, run 1 (luminescence) = 4.51e5
CG10472 [SID104189522] — stable assay Renilla, run 1 (luminescence) = 6835; stable assay firefly, run 1 (luminescence) = 5.03e5
CG8958 [SID104199926] — stable assay Renilla, run 1 (luminescence) = 3915; stable assay firefly, run 1 (luminescence) = 3.20e5
GluProRS (Glutamyl-prolyl-tRNA synthetase) [SID104193887] — stable siRNA reporter change = reporter ratio lowered past the hit cutoff; stable assay Renilla, run 1 (luminescence) = 8758; stable assay firefly, run 1 (luminescence) = 5.69e5
TwdlO (TweedleO) [SID104195835] — stable assay Renilla, run 1 (luminescence) = 5994; stable assay firefly, run 1 (luminescence) = 5.44e5
Rbp1-like [SID104199620] — stable assay Renilla, run 1 (luminescence) = 3991; stable assay firefly, run 1 (luminescence) = 2.85e5
Rbp1-like [SID104201649] — stable assay Renilla, run 1 (luminescence) = 9945; stable assay firefly, run 1 (luminescence) = 7.45e5
Ice2 (Interacts with the C terminus of ELL 2) [SID104194060] — stable assay Renilla, run 1 (luminescence) = 11039; stable assay firefly, run 1 (luminescence) = 4.04e5
CG15498 [SID104194832] — stable assay Renilla, run 1 (luminescence) = 8236; stable assay firefly, run 1 (luminescence) = 3.62e5
CG10357 [SID104187947] — stable assay Renilla, run 1 (luminescence) = 6283; stable assay firefly, run 1 (luminescence) = 3.09e5
Ir51b (Ionotropic receptor 51b) [SID104185332] — stable assay Renilla, run 1 (luminescence) = 3892; stable assay firefly, run 1 (luminescence) = 3.00e5
CG13305 [SID104189767] — miRNA reporter change = reporter ratio lowered past the hit cutoff; stable assay Renilla, run 1 (luminescence) = 5296; stable assay firefly, run 1 (luminescence) = 3.39e5
CG32054 [SID104190476] — stable assay Renilla, run 1 (luminescence) = 7199; stable assay firefly, run 1 (luminescence) = 3.94e5
Edem2 (ER degradation enhancer, mannosidase alpha-like 2) [SID104182669] — stable assay Renilla, run 1 (luminescence) = 7126; stable assay firefly, run 1 (luminescence) = 3.79e5

The list goes on, starting with the last 4 of the part before.
Ir51b (Ionotropic receptor 51b) [SID104185332] — stable assay Renilla, run 1 (luminescence) = 3892; stable assay firefly, run 1 (luminescence) = 3.00e5
CG13305 [SID104189767] — miRNA reporter change = reporter ratio lowered past the hit cutoff; stable assay Renilla, run 1 (luminescence) = 5296; stable assay firefly, run 1 (luminescence) = 3.39e5
CG32054 [SID104190476] — stable assay Renilla, run 1 (luminescence) = 7199; stable assay firefly, run 1 (luminescence) = 3.94e5
Edem2 (ER degradation enhancer, mannosidase alpha-like 2) [SID104182669] — stable assay Renilla, run 1 (luminescence) = 7126; stable assay firefly, run 1 (luminescence) = 3.79e5
RhoGAP15B (Rho GTPase activating protein at 15B) [SID104199716] — stable assay Renilla, run 1 (luminescence) = 8062; stable assay firefly, run 1 (luminescence) = 4.69e5
RhoGAP15B (Rho GTPase activating protein at 15B) [SID104199717] — stable assay Renilla, run 1 (luminescence) = 4347; stable assay firefly, run 1 (luminescence) = 3.21e5
CG42553 [SID104188148] — stable assay Renilla, run 1 (luminescence) = 5887; stable assay firefly, run 1 (luminescence) = 3.01e5
CG11350 [SID104187973] — stable assay Renilla, run 1 (luminescence) = 4363; stable assay firefly, run 1 (luminescence) = 4.30e5
ppk26 (pickpocket 26) [SID104190783] — stable assay Renilla, run 1 (luminescence) = 7162; stable assay firefly, run 1 (luminescence) = 4.70e5
CG5071 [SID104195502] — stable assay Renilla, run 1 (luminescence) = 5947; stable assay firefly, run 1 (luminescence) = 3.29e5
CG5071 [SID104201995] — stable assay Renilla, run 1 (luminescence) = 4851; stable assay firefly, run 1 (luminescence) = 3.77e5
mud (mushroom body defect) [SID104198811] — stable assay Renilla, run 1 (luminescence) = 4691; stable assay firefly, run 1 (luminescence) = 4.07e5
Ubc87F (Ubiquitin conjugating enzyme 87F) [SID104196305] — stable assay Renilla, run 1 (luminescence) = 9537; stable assay firefly, run 1 (luminescence) = 4.74e5
sub (subito) [SID104185917] — stable assay Renilla, run 1 (luminescence) = 10828; stable assay firefly, run 1 (luminescence) = 4.12e5
CG9485 [SID104184349] — stable assay Renilla, run 1 (luminescence) = 2.10e5; stable assay firefly, run 1 (luminescence) = 5.19e5
CG11267 [SID104189625] — stable siRNA reporter change = reporter ratio lowered past the hit cutoff; stable assay Renilla, run 1 (luminescence) = 7854; stable assay firefly, run 1 (luminescence) = 8.72e5
CG17636 [SID104200440] — stable siRNA reporter change = reporter ratio raised past the hit cutoff; stable assay Renilla, run 1 (luminescence) = 6127; stable assay firefly, run 1 (luminescence) = 2.72e5
Rtel1 (Regulator of telomere elongation helicase 1) [SID104198135] — stable assay Renilla, run 1 (luminescence) = 5862; stable assay firefly, run 1 (luminescence) = 3.27e5
Or42a (Odorant receptor 42a) [SID104184704] — stable assay Renilla, run 1 (luminescence) = 7455; stable assay firefly, run 1 (luminescence) = 4.23e5
CG33127 [SID104179803] — stable assay Renilla, run 1 (luminescence) = 6523; stable assay firefly, run 1 (luminescence) = 4.72e5
idc (identity crisis) [SID104195472] — stable assay Renilla, run 1 (luminescence) = 8240; stable assay firefly, run 1 (luminescence) = 2.83e5
Pcd (pterin-4a-carbinolamine dehydratase) [SID104196577] — stable assay Renilla, run 1 (luminescence) = 6847; stable assay firefly, run 1 (luminescence) = 3.29e5
CG9993 [SID104184391] — stable assay Renilla, run 1 (luminescence) = 8614; stable assay firefly, run 1 (luminescence) = 5.45e5
tea (telomere ends associated) [SID104185902] — stable assay Renilla, run 1 (luminescence) = 10617; stable assay firefly, run 1 (luminescence) = 3.84e5
tea (telomere ends associated) [SID104186028] — stable assay Renilla, run 1 (luminescence) = 7446; stable assay firefly, run 1 (luminescence) = 4.70e5
